1 substance from publication PMC12355757, “TRIM6 ablation reverses ICB resistance in MSS gastric cancer by unleashing cGAS-STING-dependent antitumor immunity” (Journal of Experimental & Clinical Cancer Research : CR, 2025) can be followed below.

Sequences of proteins named here, by UniProt entry; tags and fusion partners are left off. A change or cut given only in a name is not applied to a line headed by its entry.
UniProt Q9C030: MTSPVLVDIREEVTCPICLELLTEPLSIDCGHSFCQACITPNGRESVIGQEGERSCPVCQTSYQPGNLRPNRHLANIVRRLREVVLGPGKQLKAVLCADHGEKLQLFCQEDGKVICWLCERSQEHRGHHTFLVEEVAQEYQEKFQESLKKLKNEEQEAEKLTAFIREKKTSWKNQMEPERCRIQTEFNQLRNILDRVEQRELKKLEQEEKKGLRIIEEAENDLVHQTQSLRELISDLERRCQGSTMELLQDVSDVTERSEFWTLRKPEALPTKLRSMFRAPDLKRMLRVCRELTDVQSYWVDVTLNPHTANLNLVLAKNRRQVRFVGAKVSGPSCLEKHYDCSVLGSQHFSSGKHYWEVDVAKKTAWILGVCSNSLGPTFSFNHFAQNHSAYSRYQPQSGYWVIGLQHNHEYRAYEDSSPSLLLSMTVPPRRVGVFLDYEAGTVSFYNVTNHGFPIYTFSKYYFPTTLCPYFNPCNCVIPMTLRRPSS
UniProt Q8N884: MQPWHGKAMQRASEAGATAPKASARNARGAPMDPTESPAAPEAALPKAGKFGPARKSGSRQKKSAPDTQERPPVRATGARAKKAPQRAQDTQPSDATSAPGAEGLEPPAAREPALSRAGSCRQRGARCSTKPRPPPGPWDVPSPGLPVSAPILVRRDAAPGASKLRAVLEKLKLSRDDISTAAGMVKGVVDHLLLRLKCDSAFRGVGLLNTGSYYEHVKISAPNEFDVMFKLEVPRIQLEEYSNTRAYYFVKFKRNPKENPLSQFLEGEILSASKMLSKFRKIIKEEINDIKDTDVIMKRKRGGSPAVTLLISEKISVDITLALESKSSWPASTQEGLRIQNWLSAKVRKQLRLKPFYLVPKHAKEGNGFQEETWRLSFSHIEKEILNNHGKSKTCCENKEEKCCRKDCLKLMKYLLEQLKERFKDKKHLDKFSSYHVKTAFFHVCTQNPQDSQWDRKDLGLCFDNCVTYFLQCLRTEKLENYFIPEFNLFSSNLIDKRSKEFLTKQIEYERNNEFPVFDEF

Among the targets are GST-TRIM6 ΔBbox (human) (UniProt Q9C030); GST-TRIM6 ΔCC (human) (UniProt Q9C030); GST-TRIM6 ΔRING (human) (UniProt Q9C030).
What all share (test): pull-down; purified His-cGAS incubated with GST, GST-TRIM6 or its truncated mutants on GST-tag resin overnight at 4 °C; 50 mM Tris pH 8.0, 200 mM NaCl, 1 mM EDTA, 1% NP-40, 1 mM DTT, 1 mM MgCl2; immunoblot with anti-His or anti-cGAS; both purified
The target of assay [1] is GST-TRIM6 ΔPRY-SPRY (human) (UniProt Q9C030).

Results are given in words; binding and its absence hold for the method and conditions named. For some of these results: Binding can be weak; no strength is given.

With “Recombinant His-cGAS (from UniProt Q8N884 1-522) (enzyme)”, the binding result with GST-TRIM6 ΔBbox (human) was “binds”; with GST-TRIM6 ΔCC (human), “no binding”; in assay [1], “no binding”; in the assay with GST-TRIM6 ΔRING (human), “binds”.
